From the supplement of paper PMC10373366
Structures can show the parent of a compound that is named as a salt. Some of the results follow. Repeats are few or missing, and single values can be far off.

What follows are compounds tested on patient-derived ovarian cancer cells (PDC) (assay: cell growth inhibition ratio vs untreated control (CCK8); higher = stronger inhibition of cell viability). Conditions: 10 µM; 48 h.
Experimental: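 Natural product library (Topscience) screened at 10 µM final concentration for 48 h on ovarian cancer A2780 cells and patient-derived ovarian cancer cells (PDC) in 96-well plates; viability read by CCK8 and reported as inhibition ratio (%) relative to untreated control. Single-dose primary screen.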

Structure (SMILES)	cell growth inhibition ratio
C[C@H]1COC2=C1C(=O)C(=O)c1c2ccc2c1CCCC2(C)C [Cryptotanshinone]	18.6%
O=c1cc(-c2ccc(O)c(O)c2)oc2cc(O)cc(O)c12 [Luteolin]	-11.2%
O=Cc1ccc(O)c(O)c1 [Protocatechualdehyde]	-20.9%
C[N+](C)(C)CC(O)CC(=O)[O-] (stereo not drawn) [L(-)-Carnitine]	9.27%
OC1COC(O)C(O)C1O (stereo not drawn) [L(+)-Arabinose]	-0.374%
CC12CCC(CC1=O)C2(C)C [D-Camphor]	2.19%
C=C1C[C@@]2(O)O[C@@]3(C[C@H]2C(C)C)[C@@H](C)CC[C@@H]13 [Curcumol]	-1.04%
C=C(C)[C@@H]1CC[C@]2(C(=O)O)CC[C@]3(C)[C@H](CC[C@@H]4[C@@]5(C)CC[C@H](O)C(C)(C)[C@@H]5CC[C@]43C)[C@@H]12 [Betulinic acid]	-1.74%
COc1cccc2oc(-c3ccccc3)cc(=O)c12 [5-methoxyflavone]	8.81%
C=C(NC(=O)C(=C)NC(=O)c1csc(C2=N[C@@H]3c4csc(n4)[C@H]4NC(=O)c5csc(n5)[C@H]([C@](C)(O)[C@@H](C)O)NC(=O)[C@H]5CSC(=N5)/C(=C/C)NC(=O)[C@H]([C@@H](C)O)NC(=O)c5csc(n5)[C@]3(CC2)NC(=O)[C@H](C)NC(=O)C(=C)NC(=O)[C@H](C)NC(=O)[C@H]([C@@H](C)CC)N[C@@H]2C=Cc3c([C@H](C)O)cc(nc3[C@H]2O)C(=O)O[C@@H]4C)n1)C(N)=O [Thiostrepton]	-4.65%
O=C(O)c1cccnc1 [Nicotinic acid]	-9.64%
C=C1C[C@@]23CC[C@H]4[C@@](C)(CCC[C@@]4(C)C(=O)O[C@@H]4O[C@H](CO)[C@@H](O)[C@H](O)[C@H]4O)[C@@H]2CC[C@]1(O[C@@H]1O[C@H](CO)[C@@H](O)[C@H](O[C@@H]2O[C@H](CO)[C@@H](O)[C@H](O)[C@H]2O)[C@H]1O[C@@H]1O[C@H](CO)[C@@H](O)[C@H](O)[C@H]1O)C3 [Rebaudioside A]	5.34%
Cc1cc(O)cc(O[C@@H]2O[C@H](CO)[C@@H](O)[C@H](O)[C@H]2O)c1 [Orcinol glucoside]	8.13%
COc1ccc(-c2coc3cc(O)cc(O)c3c2=O)cc1 [Biochanin A]	-4.52%
O=c1cc(-c2ccc(O)c(O)c2)oc2cc(O[C@@H]3O[C@H](CO)[C@@H](O)[C@H](O)[C@H]3O)cc(O)c12 [Cynaroside]	-10.4%
Cc1ncc(CSSCc2cnc(C)c(O)c2CO)c(CO)c1O [Pyrithioxin]	-11.6%
O=C[C@H](O)[C@@H](O)[C@H](O)CO (racemic) [DL-Xylose]	-8.94%
Cc1ncc(CO)c(CO)c1O [Pyridoxine]	-6.15%
CC1(C)CCCC2(C)OC(=O)C=C12 (stereo not given) [Dihydroactinidiolide]	-5.79%
CC[C@H](C)C(=O)O[C@H]1CCC=C2C=C[C@H](C)[C@H](CC[C@@H]3C[C@@H](O)CC(=O)O3)[C@H]21 [Mevastatin]	-36.1%
C[C@H]1[C@@H](O)O[C@@H]2O[C@@]3(C)CC[C@H]4[C@H](C)CC[C@@H]1[C@@]24OO3 [Dihydroartemisinin]	9.62%
COc1c(C)c2c(c(O)c1C/C=C(\C)CCC(=O)O)C(=O)OC2 [Mycophenolic acid]	47.2%
COC(=O)[C@H]1[C@H]2C[C@@H]3c4[nH]c5cc(OC)ccc5c4CCN3C[C@H]2C[C@@H](OC(=O)c2cc(OC)c(OC)c(OC)c2)[C@@H]1OC [Reserpine]	4.23%
O=C(O)c1ccccc1 [Benzoic acid]	4.39%
O=C(O)CCc1ccc(O)cc1O [Hydroumbellic acid]	7.02%
NC[C@H]1O[C@H](O[C@H]2[C@H](O)[C@@H](O[C@H]3O[C@H](CO)[C@@H](O)[C@H](N)[C@H]3O)[C@H](N)C[C@@H]2N)[C@H](O)[C@@H](O)[C@@H]1O [Kanamycin sulfate]	0.833%
C=C1C(=O)O[C@@H]2C[C@@]3(C)CCC[C@H](C)C3=C[C@H]12 [Helenine]	29.2%
OC[C@@H](O)[C@@H](O)[C@@H](O)[C@@H](O)CO [Allitol]	-13.3%
O=C(O)c1cc(O)c2c(c1)[C@@H]([C@H]1c3cc(C(=O)O)cc(O)c3C(=O)c3c(O[C@@H]4O[C@H](CO)[C@@H](O)[C@H](O)[C@H]4O)cccc31)c1cccc(O[C@@H]3O[C@H](CO)[C@@H](O)[C@H](O)[C@H]3O)c1C2=O [Sennoside B]	13.4%
OC[C@H]1O[C@@H](OCCc2ccc(O)cc2)[C@H](O)[C@@H](O)[C@@H]1O [Salidroside]	-7.59%

Quoted from the listing.
In cell growth inhibition ratio, `C=C1C(=O)O[C@@H]2C[C@@]3(C)CCC[C@H](C)C3=C[C@H]12` [Helenine] shows 29.2%
In cell growth inhibition ratio, `COc1cccc2oc(-c3ccccc3)cc(=O)c12` [5-methoxyflavone] shows 8.81%
